The record followed here is the supplement of paper PMC10849652.

Chains of the proteins cited; added tags and fusions are not shown. Lines headed by an entry give the natural chain unless they say otherwise; changes in a name come on top.
UniProt Q96Q11: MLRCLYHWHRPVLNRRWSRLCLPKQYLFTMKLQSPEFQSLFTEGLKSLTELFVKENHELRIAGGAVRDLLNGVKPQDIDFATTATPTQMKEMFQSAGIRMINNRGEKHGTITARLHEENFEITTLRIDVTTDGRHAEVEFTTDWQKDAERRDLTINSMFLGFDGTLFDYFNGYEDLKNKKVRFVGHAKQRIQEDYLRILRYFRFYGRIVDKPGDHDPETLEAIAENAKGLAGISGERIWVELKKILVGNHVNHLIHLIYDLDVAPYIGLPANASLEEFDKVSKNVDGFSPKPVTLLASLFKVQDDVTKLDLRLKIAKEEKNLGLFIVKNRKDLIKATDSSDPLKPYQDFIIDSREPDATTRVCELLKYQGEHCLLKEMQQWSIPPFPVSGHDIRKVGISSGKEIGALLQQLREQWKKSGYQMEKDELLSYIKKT
UniProt O43715: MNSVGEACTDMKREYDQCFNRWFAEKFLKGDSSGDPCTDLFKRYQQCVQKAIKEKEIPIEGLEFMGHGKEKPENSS
UniProt Q96LD4: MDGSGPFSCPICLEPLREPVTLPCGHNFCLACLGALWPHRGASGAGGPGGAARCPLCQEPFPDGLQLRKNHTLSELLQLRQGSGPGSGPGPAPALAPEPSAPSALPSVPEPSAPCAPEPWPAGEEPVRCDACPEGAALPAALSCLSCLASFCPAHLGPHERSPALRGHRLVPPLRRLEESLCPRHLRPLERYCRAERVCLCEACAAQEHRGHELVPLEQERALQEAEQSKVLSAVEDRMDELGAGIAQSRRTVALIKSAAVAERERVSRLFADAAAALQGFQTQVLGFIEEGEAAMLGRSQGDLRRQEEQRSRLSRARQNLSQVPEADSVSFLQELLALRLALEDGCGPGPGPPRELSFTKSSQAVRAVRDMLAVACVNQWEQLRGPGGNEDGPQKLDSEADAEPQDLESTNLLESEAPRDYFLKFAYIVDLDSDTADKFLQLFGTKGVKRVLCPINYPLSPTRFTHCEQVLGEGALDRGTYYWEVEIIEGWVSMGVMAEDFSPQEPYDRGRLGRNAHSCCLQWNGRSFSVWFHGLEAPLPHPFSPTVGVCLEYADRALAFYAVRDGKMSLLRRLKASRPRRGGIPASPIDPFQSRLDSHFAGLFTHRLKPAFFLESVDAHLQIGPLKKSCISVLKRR
UniProt Q5BVD1: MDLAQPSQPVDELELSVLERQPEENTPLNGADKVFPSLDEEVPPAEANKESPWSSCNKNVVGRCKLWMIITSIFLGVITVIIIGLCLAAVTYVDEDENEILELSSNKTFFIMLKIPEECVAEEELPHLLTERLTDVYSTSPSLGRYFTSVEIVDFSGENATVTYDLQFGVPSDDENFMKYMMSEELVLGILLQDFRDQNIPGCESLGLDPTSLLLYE
UniProt Q6PJ69: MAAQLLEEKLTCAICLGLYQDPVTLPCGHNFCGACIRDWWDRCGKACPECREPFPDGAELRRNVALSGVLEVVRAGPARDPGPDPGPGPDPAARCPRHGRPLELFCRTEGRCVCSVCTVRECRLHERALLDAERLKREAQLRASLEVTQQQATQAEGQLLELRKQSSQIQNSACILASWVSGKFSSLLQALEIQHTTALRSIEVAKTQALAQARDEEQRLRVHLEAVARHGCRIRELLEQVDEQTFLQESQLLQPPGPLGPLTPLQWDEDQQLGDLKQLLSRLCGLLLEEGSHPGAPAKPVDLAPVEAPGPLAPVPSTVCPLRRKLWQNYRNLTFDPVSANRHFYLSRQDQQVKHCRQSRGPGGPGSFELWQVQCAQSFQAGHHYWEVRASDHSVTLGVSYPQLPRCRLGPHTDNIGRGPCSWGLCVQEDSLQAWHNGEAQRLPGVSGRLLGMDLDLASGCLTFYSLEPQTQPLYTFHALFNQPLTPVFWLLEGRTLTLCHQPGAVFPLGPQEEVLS
UniProt Q5T7W7: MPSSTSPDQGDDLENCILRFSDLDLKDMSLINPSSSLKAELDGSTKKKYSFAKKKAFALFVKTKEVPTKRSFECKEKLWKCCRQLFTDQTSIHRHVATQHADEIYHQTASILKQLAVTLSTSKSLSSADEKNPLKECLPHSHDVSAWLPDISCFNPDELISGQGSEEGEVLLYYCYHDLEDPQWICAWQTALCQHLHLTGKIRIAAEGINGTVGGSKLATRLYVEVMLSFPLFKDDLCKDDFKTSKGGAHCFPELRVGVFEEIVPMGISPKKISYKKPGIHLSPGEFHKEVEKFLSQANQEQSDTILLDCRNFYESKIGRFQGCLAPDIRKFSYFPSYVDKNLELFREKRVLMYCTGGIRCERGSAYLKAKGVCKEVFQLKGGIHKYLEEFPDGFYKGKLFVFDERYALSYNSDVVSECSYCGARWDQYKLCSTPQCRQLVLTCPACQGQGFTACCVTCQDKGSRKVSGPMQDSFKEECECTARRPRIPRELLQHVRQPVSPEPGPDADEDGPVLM
UniProt Q7Z4L5: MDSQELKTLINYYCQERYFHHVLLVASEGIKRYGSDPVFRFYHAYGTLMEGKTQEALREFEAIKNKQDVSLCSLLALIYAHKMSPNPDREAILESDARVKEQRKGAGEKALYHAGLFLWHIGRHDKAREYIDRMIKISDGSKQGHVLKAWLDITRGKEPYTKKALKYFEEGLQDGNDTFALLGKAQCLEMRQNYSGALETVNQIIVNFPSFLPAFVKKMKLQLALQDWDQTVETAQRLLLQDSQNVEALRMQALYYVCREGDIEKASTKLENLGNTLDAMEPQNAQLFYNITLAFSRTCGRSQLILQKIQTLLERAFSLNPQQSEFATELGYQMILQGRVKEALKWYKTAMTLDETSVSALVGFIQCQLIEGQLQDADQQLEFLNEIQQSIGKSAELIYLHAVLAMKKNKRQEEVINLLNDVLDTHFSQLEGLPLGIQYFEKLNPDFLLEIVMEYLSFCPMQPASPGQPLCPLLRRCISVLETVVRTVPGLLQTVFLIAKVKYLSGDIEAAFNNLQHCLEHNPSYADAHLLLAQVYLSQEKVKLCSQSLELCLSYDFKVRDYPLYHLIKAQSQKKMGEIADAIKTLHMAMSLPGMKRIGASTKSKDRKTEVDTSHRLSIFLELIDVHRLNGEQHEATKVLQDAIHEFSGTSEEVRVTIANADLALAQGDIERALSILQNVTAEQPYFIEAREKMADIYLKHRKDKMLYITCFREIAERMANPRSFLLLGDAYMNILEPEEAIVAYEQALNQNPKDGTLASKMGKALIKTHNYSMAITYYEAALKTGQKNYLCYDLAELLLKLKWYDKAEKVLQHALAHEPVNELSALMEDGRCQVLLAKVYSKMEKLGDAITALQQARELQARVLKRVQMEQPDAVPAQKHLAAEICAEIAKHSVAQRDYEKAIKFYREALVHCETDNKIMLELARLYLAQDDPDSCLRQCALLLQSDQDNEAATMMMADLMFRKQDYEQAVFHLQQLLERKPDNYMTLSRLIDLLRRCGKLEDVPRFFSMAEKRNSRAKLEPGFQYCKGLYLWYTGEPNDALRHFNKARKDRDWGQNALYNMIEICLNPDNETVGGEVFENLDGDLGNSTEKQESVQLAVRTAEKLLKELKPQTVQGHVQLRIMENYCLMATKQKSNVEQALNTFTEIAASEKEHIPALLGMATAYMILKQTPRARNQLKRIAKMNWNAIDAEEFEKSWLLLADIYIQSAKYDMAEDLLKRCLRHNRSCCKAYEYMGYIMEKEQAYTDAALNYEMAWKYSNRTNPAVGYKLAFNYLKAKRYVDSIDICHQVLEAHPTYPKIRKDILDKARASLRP
UniProt Q9H2D6: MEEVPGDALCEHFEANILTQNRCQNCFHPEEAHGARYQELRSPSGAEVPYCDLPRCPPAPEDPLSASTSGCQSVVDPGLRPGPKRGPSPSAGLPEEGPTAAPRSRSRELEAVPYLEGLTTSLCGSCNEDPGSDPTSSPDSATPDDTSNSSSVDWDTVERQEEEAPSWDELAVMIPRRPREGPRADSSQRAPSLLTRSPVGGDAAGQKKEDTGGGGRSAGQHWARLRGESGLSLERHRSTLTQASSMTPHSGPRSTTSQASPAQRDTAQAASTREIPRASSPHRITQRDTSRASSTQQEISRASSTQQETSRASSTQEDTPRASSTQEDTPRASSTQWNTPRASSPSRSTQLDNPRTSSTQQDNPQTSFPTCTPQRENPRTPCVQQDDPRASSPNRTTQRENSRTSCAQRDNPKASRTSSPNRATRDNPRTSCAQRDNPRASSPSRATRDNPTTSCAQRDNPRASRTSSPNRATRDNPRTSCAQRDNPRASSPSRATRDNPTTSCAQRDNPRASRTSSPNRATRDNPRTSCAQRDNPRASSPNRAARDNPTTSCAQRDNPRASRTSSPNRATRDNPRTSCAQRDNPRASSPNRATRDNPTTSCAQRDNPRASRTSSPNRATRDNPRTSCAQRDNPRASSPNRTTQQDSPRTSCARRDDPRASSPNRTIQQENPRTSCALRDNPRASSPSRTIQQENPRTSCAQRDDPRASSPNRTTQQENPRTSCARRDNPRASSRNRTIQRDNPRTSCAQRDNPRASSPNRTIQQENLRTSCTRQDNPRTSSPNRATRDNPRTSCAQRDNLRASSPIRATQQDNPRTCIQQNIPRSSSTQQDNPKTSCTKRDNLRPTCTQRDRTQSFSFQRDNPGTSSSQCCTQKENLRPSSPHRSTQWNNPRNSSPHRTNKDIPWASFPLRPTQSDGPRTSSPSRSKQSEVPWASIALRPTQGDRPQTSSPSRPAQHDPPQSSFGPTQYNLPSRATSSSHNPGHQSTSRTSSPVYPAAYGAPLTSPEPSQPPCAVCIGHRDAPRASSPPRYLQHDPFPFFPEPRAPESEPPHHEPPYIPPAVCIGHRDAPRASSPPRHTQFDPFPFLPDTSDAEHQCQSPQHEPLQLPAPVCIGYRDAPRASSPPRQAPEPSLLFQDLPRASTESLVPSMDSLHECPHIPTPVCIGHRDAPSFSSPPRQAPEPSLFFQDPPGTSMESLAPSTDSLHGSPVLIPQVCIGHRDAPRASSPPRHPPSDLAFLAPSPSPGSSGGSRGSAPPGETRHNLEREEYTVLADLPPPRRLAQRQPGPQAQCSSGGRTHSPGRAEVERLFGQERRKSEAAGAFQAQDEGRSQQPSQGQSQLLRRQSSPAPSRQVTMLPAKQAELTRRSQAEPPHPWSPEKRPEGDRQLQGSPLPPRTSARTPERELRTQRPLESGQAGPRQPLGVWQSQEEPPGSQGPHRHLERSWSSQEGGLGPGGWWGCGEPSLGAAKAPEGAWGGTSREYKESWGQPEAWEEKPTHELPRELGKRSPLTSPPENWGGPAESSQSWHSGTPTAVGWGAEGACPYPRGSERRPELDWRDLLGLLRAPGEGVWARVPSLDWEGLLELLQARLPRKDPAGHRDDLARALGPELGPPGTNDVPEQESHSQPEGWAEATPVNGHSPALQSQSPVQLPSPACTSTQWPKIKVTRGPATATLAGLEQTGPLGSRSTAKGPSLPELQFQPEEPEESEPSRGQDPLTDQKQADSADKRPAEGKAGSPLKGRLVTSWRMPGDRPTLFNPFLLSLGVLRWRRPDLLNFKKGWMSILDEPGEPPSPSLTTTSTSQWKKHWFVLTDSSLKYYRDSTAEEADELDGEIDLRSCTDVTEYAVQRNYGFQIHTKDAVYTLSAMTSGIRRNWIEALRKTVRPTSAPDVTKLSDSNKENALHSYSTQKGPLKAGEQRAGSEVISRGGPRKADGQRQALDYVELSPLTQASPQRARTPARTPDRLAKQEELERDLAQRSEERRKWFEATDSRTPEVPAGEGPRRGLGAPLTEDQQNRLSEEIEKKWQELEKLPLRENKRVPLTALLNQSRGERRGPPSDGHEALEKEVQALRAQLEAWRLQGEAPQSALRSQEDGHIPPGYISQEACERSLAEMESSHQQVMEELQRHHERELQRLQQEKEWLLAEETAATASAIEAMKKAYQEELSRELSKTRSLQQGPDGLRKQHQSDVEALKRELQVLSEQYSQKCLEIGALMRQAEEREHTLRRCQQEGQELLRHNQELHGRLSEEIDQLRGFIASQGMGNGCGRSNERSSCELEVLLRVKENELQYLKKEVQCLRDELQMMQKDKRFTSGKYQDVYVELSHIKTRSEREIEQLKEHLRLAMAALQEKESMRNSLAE
UniProt Q6PF06: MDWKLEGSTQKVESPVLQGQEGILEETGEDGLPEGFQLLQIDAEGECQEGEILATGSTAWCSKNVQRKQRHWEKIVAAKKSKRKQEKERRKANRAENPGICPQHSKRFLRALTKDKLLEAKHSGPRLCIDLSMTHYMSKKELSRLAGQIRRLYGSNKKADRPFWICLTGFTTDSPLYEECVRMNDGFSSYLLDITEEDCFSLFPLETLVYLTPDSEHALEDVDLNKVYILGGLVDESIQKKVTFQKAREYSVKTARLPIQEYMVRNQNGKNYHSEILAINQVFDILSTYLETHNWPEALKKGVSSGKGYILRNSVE

The list shows a part of the results.

Compound in this experiment: Cc1cccc(CC(=O)N2CCc3c2ccc(-c2cn(C)c4ncnc(N)c24)c3F)n1
As to the kind of experiment: log2 fold change, soluble protein after heating vs DMSO (PISA); higher = thermal stabilisation; K562 lysate, 10 uM; active = over 0.2 and 3.5 SD of the protein, either way, in both replicates (recomputed). The essentials: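 A 30 min treatment with 10 μM compound was applied to crude K562 extract at 1 mg/mL protein in PBS pH 7.4 with 1 mM MgCl2. Heating for 3 min spanned 48°C-58°C, after which aliquots were pooled, adjusted to 0.5% NP-40 at 4°C and spun at 21,000xg for 90 min. TMTpro 16plex LC-MS/MS of the supernatant, with channel sums equalised, gave values recorded as log-two fold change in thermal stability against solvent controls, from duplicates.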
Regarding TRMT2B (UniProt Q96GJ1), the log2 fold change was inactive: 0.014. For TSC1 (UniProt Q92574), the log2 fold change is inactive: 0.119. Regarding TTC26, the log2 fold change was inactive: 0.102. Take TTLL12 (UniProt V9GY16): the log2 fold change was inactive: 0.263.

For the target TRAF3IP2 (UniProt O43734), the log2 fold change is inactive: -0.359. With TSPYL2 (UniProt Q9H2G4), the log2 fold change is inactive: 0.228. Next, TRIM58 (UniProt Q8NG06): inactive: 0.02; TSPYL1 (UniProt Q9H0U9): inactive: 0.027. TRRAP (UniProt Q9Y4A5): the log2 fold change is inactive: 0.018.

For the target TRPM4 (UniProt Q8TD43), the log2 fold change is inactive: 0.25. The value for TRPS1 isoform 2 (UniProt Q9UHF7) was inactive: 0.279. For the target TRNT1 (UniProt Q96Q11), the log2 fold change was inactive: -0.03. Next, TRIP10 (UniProt Q15642): inactive: 0.179; TRIAP1 (UniProt O43715): inactive: -0.053; TSC22D2 (UniProt O75157): inactive: 0.011. The value for TRIM47 (UniProt Q96LD4) was inactive: 0; that for TRPT1 isoform 4 (UniProt Q86TN4) was inactive: -0.007; that for TRIP10 isoform 2 (UniProt Q15642) was inactive: 0.096. The value for TSEN15, A0A2U3TZM3 was inactive: 0.051; that for TTMP isoform 3 (UniProt Q5BVD1) was inactive: 0.47. In the case of TRUB2 (UniProt O95900), the log2 fold change was inactive: 0.

With TRAF3 (UniProt Q13114), the log2 fold change was inactive: 0.048. The value for TRIM65 (UniProt Q6PJ69) was inactive: 0.088.

As to TSTD2 (UniProt Q5T7W7), the log2 fold change was inactive: -0.053.

Turning to TTC21B (UniProt Q7Z4L5), the log2 fold change is inactive: 0.038. The value for TRPM7 (UniProt Q96QT4) was inactive: 0.201; that for TRAF7 (UniProt Q6Q0C0) was inactive: 0.127.

Turning to TSKS (UniProt Q9UJT2), the log2 fold change is inactive: 0.004.

Consider TRIOBP (UniProt Q9H2D6), for which the log2 fold change is inactive: -0.022. For TSPAN3 (UniProt O60637), the log2 fold change was inactive: -0.342. On to TRIM27 (UniProt P14373), for which the log2 fold change was inactive: 0.03. On to TRIO (UniProt O75962), for which the log2 fold change is inactive: 0.115. Take TRMT10B (UniProt Q6PF06): the log2 fold change was inactive: 0.12.
